From article PMC9938007 come the findings set out here.

The chains behind the UniProt entries cited, without tags or fusion partners. Residues count along the entry.
UniProt P11182, residues 62-482: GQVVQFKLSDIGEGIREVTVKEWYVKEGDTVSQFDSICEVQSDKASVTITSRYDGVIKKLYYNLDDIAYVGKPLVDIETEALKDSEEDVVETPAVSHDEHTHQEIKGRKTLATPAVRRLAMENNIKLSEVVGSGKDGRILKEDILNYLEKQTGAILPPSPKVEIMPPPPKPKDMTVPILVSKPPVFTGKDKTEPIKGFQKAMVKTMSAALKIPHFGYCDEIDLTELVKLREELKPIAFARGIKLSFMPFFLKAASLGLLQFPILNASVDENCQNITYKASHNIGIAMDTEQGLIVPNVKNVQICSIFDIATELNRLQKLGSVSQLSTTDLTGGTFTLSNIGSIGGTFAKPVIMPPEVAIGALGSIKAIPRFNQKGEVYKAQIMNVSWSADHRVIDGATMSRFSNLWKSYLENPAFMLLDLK

Results are given in words; binding and its absence hold for the method and conditions named. Binding seen in cells or lysates may run through a third protein. Some binding calls cover weakened binding; strength is not graded here.

Test [1] addresses T1, full-length AMP deaminase 3 (AMPD3), human (HEK293) (human (endogenous in HEK293)) (UniProt Q01432).
T1 sequence: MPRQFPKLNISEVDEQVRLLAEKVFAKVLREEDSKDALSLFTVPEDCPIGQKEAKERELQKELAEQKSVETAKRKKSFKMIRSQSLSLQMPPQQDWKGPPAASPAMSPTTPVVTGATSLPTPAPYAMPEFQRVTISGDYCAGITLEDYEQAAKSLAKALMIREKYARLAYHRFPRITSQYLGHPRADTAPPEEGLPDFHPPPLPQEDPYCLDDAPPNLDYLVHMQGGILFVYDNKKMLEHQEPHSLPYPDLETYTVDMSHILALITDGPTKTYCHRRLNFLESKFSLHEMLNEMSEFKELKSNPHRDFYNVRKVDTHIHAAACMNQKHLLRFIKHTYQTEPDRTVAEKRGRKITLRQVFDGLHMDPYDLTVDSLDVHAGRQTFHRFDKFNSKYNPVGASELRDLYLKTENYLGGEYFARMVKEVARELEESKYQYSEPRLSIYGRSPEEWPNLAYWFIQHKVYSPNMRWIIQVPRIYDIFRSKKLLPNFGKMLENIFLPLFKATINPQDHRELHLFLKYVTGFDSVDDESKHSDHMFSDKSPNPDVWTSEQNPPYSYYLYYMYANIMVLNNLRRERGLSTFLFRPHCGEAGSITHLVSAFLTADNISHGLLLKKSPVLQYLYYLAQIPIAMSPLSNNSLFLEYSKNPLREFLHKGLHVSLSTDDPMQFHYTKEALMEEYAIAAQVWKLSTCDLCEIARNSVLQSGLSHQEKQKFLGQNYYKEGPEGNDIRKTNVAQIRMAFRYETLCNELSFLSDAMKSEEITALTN
Put plainly: co-IP; anti-AMPD3 immunoprecipitation from HEK293 cells; immunoblotting. (In western blotting, separated proteins are transferred to a membrane and probed.)

In test [2] the target is T2, full-length AMP deaminase 3 (AMPD3), rat, 90 kDa (rat (endogenous in NRCMs, H9c2 cells and rat heart)) (UniProt O09178).
T2 sequence: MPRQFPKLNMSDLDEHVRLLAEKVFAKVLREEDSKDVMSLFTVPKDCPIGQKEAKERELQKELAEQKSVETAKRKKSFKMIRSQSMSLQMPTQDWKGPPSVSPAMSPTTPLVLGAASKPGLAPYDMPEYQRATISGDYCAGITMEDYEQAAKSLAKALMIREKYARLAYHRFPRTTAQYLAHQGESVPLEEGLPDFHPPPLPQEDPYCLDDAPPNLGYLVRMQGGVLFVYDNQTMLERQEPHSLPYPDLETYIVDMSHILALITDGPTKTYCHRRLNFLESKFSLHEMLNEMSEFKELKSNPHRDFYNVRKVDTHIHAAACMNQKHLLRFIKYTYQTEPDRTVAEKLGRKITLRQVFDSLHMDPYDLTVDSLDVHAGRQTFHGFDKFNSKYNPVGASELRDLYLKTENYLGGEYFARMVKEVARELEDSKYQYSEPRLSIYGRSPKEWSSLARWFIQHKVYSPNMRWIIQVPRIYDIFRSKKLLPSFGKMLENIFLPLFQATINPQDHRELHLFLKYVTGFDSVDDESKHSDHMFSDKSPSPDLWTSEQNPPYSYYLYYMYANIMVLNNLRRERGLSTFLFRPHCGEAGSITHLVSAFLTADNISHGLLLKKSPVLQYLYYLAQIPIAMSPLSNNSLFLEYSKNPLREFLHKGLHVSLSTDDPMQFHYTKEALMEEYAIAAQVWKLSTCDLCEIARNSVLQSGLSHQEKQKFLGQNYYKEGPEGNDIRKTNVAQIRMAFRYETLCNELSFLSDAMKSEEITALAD
The test can be described thus: co-IP; anti-AMPD3 immunoprecipitation of lysate of H9c2 cardiomyoblasts with or without E1α knocked down (siRNA); immunoblotting.

Test [3] addresses T2, full-length AMP deaminase 3 (AMPD3), rat, 90 kDa (rat (endogenous in NRCMs, H9c2 cells and rat heart)). Put plainly: co-IP; anti-AMPD3 immunoprecipitation of the ER and cytosolic fractions of LETO and OLETF rat hearts; immunoblotting.
Test [4] shares this target. Put plainly: co-IP; anti-AMPD3 immunoprecipitation of NRCM lysate (500 μg), rabbit control IgG as control; IP buffer 150 mM NaCl, 10 mM Tris-HCl pH 7.4, 1% Triton X-100, 0.5% NP-40, 4°C overnight; immunoblotting.

“E2 subunit of branched-chain α-keto acid dehydrogenase (BCKDH), human (HEK293) (from UniProt P11182 62-482)”: in test [1], the binding entry is on record as “binds”.

B1: E1α subunit of branched-chain α-keto acid dehydrogenase (BCKDH), human (HEK293) (protein, UniProt P12694 46-445)
chain: SSLDDKPQFPGASAEFIDKLEFIQPNVISGIPIYRVMDRQGQIINPSEDPHLPKEKVLKLYKSMTLLNTMDRILYESQRQGRISFYMTNYGEEGTHVGSAAALDNTDLVFGQYREAGVLMYRDYPLELFMAQCYGNISDLGKGRQMPVHYGCKERHFVTISSPLATQIPQAVGAAYAAKRANANRVVICYFGEGAASEGDAHAGFNFAATLECPIIFFCRNNGYAISTPTSEQYRGDGIAARGPGYGIMSIRVDGNDVFAVYNATKEARRRAVAENQPFLIEAMTYRIGHHSTSDDSSAYRSVDEVNYWDKQDHPISRLRHYLLSQGWWDEEQEKAWRKQSRRKVMEAFEQAERKPKPNPNLLFSDVYQEMPAQLRKQQESLARHLQTYGEHYPLDHFDK
Consider B1, for which, in test [1], the binding result was “binds”.

B2: E1α subunit of branched-chain α-keto acid dehydrogenase (BCKDH), rat (protein, UniProt P11960 42-441)
chain: PSLDDKPQFPGASAEFVDKLEFIQPNVISGIPIYRVMDRQGQIINPSEDPHLPQEEVLKLYRSMTLLNTMDRILYESQRQGRISFYMTNYGEEGTHVGSAAALERTDLVFGQYREAGVLMYRDYPLELFMAQCYGNVSDPGKGRQMPVHYGCKERHFVTISSPLATQIPQAVGAAYAAKRANANQIVICYFGEGAASEGDAHAGFNFAATLECPIIFFCRNNGYAISTPTSEQYRGDGIAARGPGYGIMSIRVDGNDVFAVYNATKEARRRAVAENQPFLIEAMTYRIGHHSTSDDSSAYRSVDEVNYWDKQDHPISRLRQYLLNQGWWDEEQEKAWRKQSRKKVMEAFEQAERKLKPNPSLLFSDVYQEMPAQLRRQQESLARHLQTYGEHYPLDHFDK
Consider B2, for which the binding result in test [2], in test [3] and in test [4] was “binds” each time.
